Results deposited as PubChem BioAssay AID1259308 (NCATS, 2017)
Aim: 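Candidate targets for better recombinant protein yield in mammalian cells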 (primary screen). Cell system: human HEK293 embryonic kidney cells stably expressing firefly luciferase (HEK-CMV-Luc2-Hygro). Reagent: single siRNA against human genes, 0.8 pmol siRNA per well. Time to read-out: 72 h. Measured: 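Reporter luminescence and viable-cell signal on separate replicate plates, given as percent of non-targeting control and median/MAD z-scores, plus per-cell luciferase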. Direction: total luciferase, z-score and total luciferase, % of control: higher = more reporter protein produced. Call rule: 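Active when the median/MAD z-score for overall luciferase is greater than 3; a gene was taken forward for validation with new siRNAs if at least two of its three siRNAs passed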. Meaning of the calls: active = raised luciferase; inactive = no rise.
Here is a random part of about 59,000 reagents. About 1,510 of all reagents (2.6%) count as active. 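Calls use total luciferase alone and ignore viability, so some active siRNAs may act by altering cell number.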 A number with no mark means an inactive call. The numbers tell different reagents against one gene apart. Further read-outs or replicates are left out here.

LOC729995 (retired record) #1
- total luciferase, z-score: 1.42
- total luciferase, % of control: 110

LOC729995 (retired record) #2
- total luciferase, z-score: 3.01 (active)
- total luciferase, % of control: 142

LOC729995 (retired record) #3
- total luciferase, z-score: 2.41
- total luciferase, % of control: 130

NDUFAF1 (NADH:ubiquinone oxidoreductase complex assembly factor 1) #1
- total luciferase, z-score: 3.37 (active)
- total luciferase, % of control: 149

NDUFAF1 (NADH:ubiquinone oxidoreductase complex assembly factor 1) #2
- total luciferase, z-score: -1.22
- total luciferase, % of control: 57.5

NDUFAF1 (NADH:ubiquinone oxidoreductase complex assembly factor 1) #3
- total luciferase, z-score: 0.0248
- total luciferase, % of control: 82.4

GBE1 (1,4-alpha-glucan branching enzyme 1) #1
- total luciferase, z-score: -0.173
- total luciferase, % of control: 78.4

GBE1 (1,4-alpha-glucan branching enzyme 1) #2
- total luciferase, z-score: -0.744
- total luciferase, % of control: 67.1

GBE1 (1,4-alpha-glucan branching enzyme 1) #3
- total luciferase, z-score: -0.225
- total luciferase, % of control: 77.4

FNDC3A (fibronectin type III domain containing 3A) #1
- total luciferase, z-score: -0.185
- total luciferase, % of control: 78.2

FNDC3A (fibronectin type III domain containing 3A) #2
- total luciferase, z-score: 0.643
- total luciferase, % of control: 94.7

FNDC3A (fibronectin type III domain containing 3A) #3
- total luciferase, z-score: 1.24
- total luciferase, % of control: 107

TAOK3 (TAO kinase 3) #1
- total luciferase, z-score: 1.01
- total luciferase, % of control: 102

TAOK3 (TAO kinase 3) #2
- total luciferase, z-score: 0.948
- total luciferase, % of control: 101

TAOK3 (TAO kinase 3) #3
- total luciferase, z-score: -0.461
- total luciferase, % of control: 72.7

NKX2-8 (NK2 homeobox 8) #1
- total luciferase, z-score: -0.183
- total luciferase, % of control: 78.3

NKX2-8 (NK2 homeobox 8) #2
- total luciferase, z-score: 0.248
- total luciferase, % of control: 86.8

NKX2-8 (NK2 homeobox 8) #3
- total luciferase, z-score: -0.912
- total luciferase, % of control: 63.7

DNASE2B (deoxyribonuclease 2 beta) #1
- total luciferase, z-score: 0.881
- total luciferase, % of control: 99.4

DNASE2B (deoxyribonuclease 2 beta) #2
- total luciferase, z-score: 0.215
- total luciferase, % of control: 86.2

DNASE2B (deoxyribonuclease 2 beta) #3
- total luciferase, z-score: -0.307
- total luciferase, % of control: 75.8

GPSM1 (G protein signaling modulator 1) #1
- total luciferase, z-score: 0.873
- total luciferase, % of control: 99.3

GPSM1 (G protein signaling modulator 1) #2
- total luciferase, z-score: 0.352
- total luciferase, % of control: 88.9

GPSM1 (G protein signaling modulator 1) #3
- total luciferase, z-score: 2.53
- total luciferase, % of control: 132

RRAGD (Ras related GTP binding D) #1
- total luciferase, z-score: -1.04
- total luciferase, % of control: 61.2

RRAGD (Ras related GTP binding D) #2
- total luciferase, z-score: -0.622
- total luciferase, % of control: 69.5

RRAGD (Ras related GTP binding D) #3
- total luciferase, z-score: 0.59
- total luciferase, % of control: 93.6

CALU (calumenin) #1
- total luciferase, z-score: 0.299
- total luciferase, % of control: 87.8

CALU (calumenin) #2
- total luciferase, z-score: -0.0861
- total luciferase, % of control: 80.2

CALU (calumenin) #3
- total luciferase, z-score: 0.138
- total luciferase, % of control: 84.6

HDDC2 (HD domain containing 2) #1
- total luciferase, z-score: -0.27
- total luciferase, % of control: 76.5

HDDC2 (HD domain containing 2) #2
- total luciferase, z-score: 0.185
- total luciferase, % of control: 85.6

HDDC2 (HD domain containing 2) #3
- total luciferase, z-score: 0.924
- total luciferase, % of control: 100

AWAT2 (acyl-CoA wax alcohol acyltransferase 2) #1
- total luciferase, z-score: 0.398
- total luciferase, % of control: 89.8

AWAT2 (acyl-CoA wax alcohol acyltransferase 2) #2
- total luciferase, z-score: 1.77
- total luciferase, % of control: 117

AWAT2 (acyl-CoA wax alcohol acyltransferase 2) #3
- total luciferase, z-score: 0.448
- total luciferase, % of control: 90.8

UBE2G1 (ubiquitin conjugating enzyme E2 G1) #1
- total luciferase, z-score: 1.49
- total luciferase, % of control: 111

UBE2G1 (ubiquitin conjugating enzyme E2 G1) #2
- total luciferase, z-score: 0.146
- total luciferase, % of control: 84.8

UBE2G1 (ubiquitin conjugating enzyme E2 G1) #3
- total luciferase, z-score: -0.59
- total luciferase, % of control: 70.1

MN1 (MN1 proto-oncogene, transcriptional regulator) #1
- total luciferase, z-score: 0.616
- total luciferase, % of control: 94.1

MN1 (MN1 proto-oncogene, transcriptional regulator) #2
- total luciferase, z-score: -0.235
- total luciferase, % of control: 77.2

MN1 (MN1 proto-oncogene, transcriptional regulator) #3
- total luciferase, z-score: 0.981
- total luciferase, % of control: 101
